This is an account of results in paper PMC7565092.

Assay [1] has as its target T1, AU1-ASIC3 (rat acid-sensing ion channel 3 with AU1 tag) (rat) (UniProt O35240).
T1 sequence: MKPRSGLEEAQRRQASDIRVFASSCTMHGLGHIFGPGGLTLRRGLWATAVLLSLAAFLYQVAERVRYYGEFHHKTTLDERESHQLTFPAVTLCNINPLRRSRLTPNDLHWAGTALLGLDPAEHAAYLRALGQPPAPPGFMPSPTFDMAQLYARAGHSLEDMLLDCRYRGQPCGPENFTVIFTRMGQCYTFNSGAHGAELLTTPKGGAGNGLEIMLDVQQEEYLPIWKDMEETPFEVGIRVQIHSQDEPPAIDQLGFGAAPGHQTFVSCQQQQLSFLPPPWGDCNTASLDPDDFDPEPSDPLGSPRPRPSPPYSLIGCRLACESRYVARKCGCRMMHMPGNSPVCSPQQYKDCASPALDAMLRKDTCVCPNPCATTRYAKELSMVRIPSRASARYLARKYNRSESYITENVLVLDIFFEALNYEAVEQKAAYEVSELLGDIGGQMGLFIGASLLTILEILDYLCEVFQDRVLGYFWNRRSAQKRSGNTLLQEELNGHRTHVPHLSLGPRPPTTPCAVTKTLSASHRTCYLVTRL
Put plainly: co-IP; CHO cells transfected with ASIC1a + AU1-ASIC3 (1:2 ratio); lysis in PBS, 1% Triton X-100; IP with goat anti-ASIC1 or goat anti-AU1 antibody, 2 h, 4 °C, Protein G agarose; blots for ASIC1 (rabbit) or AU1-ASIC3 (mouse).

Assay [2] addresses T2, rat acid-sensing ion channel 1a (ASIC1a) (rat) (UniProt P55926).
T2 sequence: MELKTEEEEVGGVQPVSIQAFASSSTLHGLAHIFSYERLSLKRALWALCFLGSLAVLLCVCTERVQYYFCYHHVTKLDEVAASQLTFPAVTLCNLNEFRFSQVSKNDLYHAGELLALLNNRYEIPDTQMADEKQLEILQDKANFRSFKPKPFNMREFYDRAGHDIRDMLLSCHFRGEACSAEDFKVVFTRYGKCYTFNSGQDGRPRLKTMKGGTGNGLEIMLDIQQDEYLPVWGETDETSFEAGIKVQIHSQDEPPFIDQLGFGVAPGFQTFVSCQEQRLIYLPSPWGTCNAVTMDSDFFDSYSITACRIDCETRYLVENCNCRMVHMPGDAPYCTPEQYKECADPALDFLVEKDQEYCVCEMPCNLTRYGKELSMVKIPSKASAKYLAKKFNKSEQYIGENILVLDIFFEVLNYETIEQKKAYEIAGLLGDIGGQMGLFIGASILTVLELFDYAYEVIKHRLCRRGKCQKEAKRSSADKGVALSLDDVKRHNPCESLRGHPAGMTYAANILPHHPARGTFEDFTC
The assay is described as above.

These are yes or no findings as the source states them, for the method shown. In cells and extracts the contact can be indirect. Some binding calls cover weakened binding; strength is not graded here. Sequences can lack the tags named with a protein.

B1: rat acid-sensing ion channel 1a (ASIC1a) (protein, UniProt P55926-1 1-526)
chain: MELKTEEEEVGGVQPVSIQAFASSSTLHGLAHIFSYERLSLKRALWALCFLGSLAVLLCVCTERVQYYFCYHHVTKLDEVAASQLTFPAVTLCNLNEFRFSQVSKNDLYHAGELLALLNNRYEIPDTQMADEKQLEILQDKANFRSFKPKPFNMREFYDRAGHDIRDMLLSCHFRGEACSAEDFKVVFTRYGKCYTFNSGQDGRPRLKTMKGGTGNGLEIMLDIQQDEYLPVWGETDETSFEAGIKVQIHSQDEPPFIDQLGFGVAPGFQTFVSCQEQRLIYLPSPWGTCNAVTMDSDFFDSYSITACRIDCETRYLVENCNCRMVHMPGDAPYCTPEQYKECADPALDFLVEKDQEYCVCEMPCNLTRYGKELSMVKIPSKASAKYLAKKFNKSEQYIGENILVLDIFFEVLNYETIEQKKAYEIAGLLGDIGGQMGLFIGASILTVLELFDYAYEVIKHRLCRRGKCQKEAKRSSADKGVALSLDDVKRHNPCESLRGHPAGMTYAANILPHHPARGTFEDFTC
For the molecule B1, the binding entry in assay [1] is on record as “binds”.

B2: AU1-ASIC3 (rat acid-sensing ion channel 3 with AU1 tag) (protein, UniProt O35240 1-533)
chain: MKPRSGLEEAQRRQASDIRVFASSCTMHGLGHIFGPGGLTLRRGLWATAVLLSLAAFLYQVAERVRYYGEFHHKTTLDERESHQLTFPAVTLCNINPLRRSRLTPNDLHWAGTALLGLDPAEHAAYLRALGQPPAPPGFMPSPTFDMAQLYARAGHSLEDMLLDCRYRGQPCGPENFTVIFTRMGQCYTFNSGAHGAELLTTPKGGAGNGLEIMLDVQQEEYLPIWKDMEETPFEVGIRVQIHSQDEPPAIDQLGFGAAPGHQTFVSCQQQQLSFLPPPWGDCNTASLDPDDFDPEPSDPLGSPRPRPSPPYSLIGCRLACESRYVARKCGCRMMHMPGNSPVCSPQQYKDCASPALDAMLRKDTCVCPNPCATTRYAKELSMVRIPSRASARYLARKYNRSESYITENVLVLDIFFEALNYEAVEQKAAYEVSELLGDIGGQMGLFIGASLLTILEILDYLCEVFQDRVLGYFWNRRSAQKRSGNTLLQEELNGHRTHVPHLSLGPRPPTTPCAVTKTLSASHRTCYLVTRL
Regarding B2, the binding result in assay [2] is on record as “binds”.
